# Measured values published in publication PMC7893578.
# Sequences of proteins named here, by UniProt entry; tags and fusion partners are left off.
# UniProt P46937: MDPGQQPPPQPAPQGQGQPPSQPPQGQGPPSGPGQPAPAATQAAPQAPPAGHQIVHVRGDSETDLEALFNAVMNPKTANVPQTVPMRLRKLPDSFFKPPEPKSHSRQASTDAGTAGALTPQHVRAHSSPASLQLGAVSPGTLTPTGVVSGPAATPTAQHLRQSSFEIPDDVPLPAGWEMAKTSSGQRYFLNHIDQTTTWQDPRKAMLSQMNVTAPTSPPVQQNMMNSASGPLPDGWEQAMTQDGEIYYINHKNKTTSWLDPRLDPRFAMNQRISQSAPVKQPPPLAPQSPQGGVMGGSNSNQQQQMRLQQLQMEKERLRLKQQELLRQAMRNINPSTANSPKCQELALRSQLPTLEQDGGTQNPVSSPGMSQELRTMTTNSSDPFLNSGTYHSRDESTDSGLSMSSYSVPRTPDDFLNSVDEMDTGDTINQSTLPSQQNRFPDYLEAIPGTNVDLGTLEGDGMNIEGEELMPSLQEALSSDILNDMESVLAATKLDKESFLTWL
# Residue numbers refer to the chain shown, from its start. No constants are given. Whether binding was seen depends on the method and setting. Binding seen in cells or lysates may run through a third protein. Some entries that bind do so weakly or less than the wild type. For some of these results: Sequences can lack the tags named with a protein.
# T1: Flag-TRIM11 full length (UniProt Q96F44)
# T1 sequence: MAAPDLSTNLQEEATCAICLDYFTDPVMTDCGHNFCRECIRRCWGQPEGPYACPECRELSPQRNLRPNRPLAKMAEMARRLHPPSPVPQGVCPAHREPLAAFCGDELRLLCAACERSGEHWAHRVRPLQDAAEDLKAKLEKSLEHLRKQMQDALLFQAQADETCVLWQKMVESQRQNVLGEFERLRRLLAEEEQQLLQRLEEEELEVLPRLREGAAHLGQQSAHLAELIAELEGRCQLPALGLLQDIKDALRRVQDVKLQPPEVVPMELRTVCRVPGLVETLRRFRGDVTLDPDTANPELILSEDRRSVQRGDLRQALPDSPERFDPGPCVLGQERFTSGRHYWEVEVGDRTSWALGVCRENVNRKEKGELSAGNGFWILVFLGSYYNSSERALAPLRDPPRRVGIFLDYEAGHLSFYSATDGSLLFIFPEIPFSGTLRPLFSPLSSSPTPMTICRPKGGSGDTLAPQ
# B1: TRIM11 (endogenous, CAL62 cells) (protein, UniProt Q96F44 1-468)
# chain: T1 sequence
# B2: TRIM11 (GST pull-down assay, in vitro) (protein, UniProt Q96F44 1-468)
# chain: T1 sequence
# B3: Myc-TRIM11-2CA (protein, UniProt Q96F44 1-468)
# chain: T1 sequence with C16A, C19A
# Assays:
# [1] = target: T1, Flag-TRIM11 full length; experiment: co-IP; HEK293 cells co-transfected with Flag-TRIM11 and Myc-YAP alpha (full length or mutants), harvested after 24 h with NP-40 lysis buffer; IP with Flag antibody and blot with Myc antibody (4C) or IP with Myc antibody and blot with Flag antibody (4D)
# [2] = target: YAP (endogenous, CAL62 cells) (human (endogenous in CAL62)) (UniProt P46937); experiment: co-IP; endogenous proteins from CAL62 cell lysate (RIPA lysis buffer by the legend, co-IP lysis buffer by the methods); precleared with rabbit IgG, IP with anti-TRIM11 or anti-YAP overnight, rabbit IgG as negative control; Western blot with anti-YAP or anti-TRIM11
# [3] = target: YAP (GST pull-down assay, in vitro) (UniProt P46937); experiment: pull-down; GST pull-down, in vitro (Figure S2)
# [4] = target: YAP (endogenous, CAL62 cells) (human (endogenous in CAL62)) (UniProt P46937); experiment: co-IP; Myc-TRIM11-2CA expressed in CAL62 cells, endogenous YAP
molecule,measurement,setting,value
Myc-YAP alpha full length (from UniProt P46937 1-504),binding,[1],binds
B1,binding,[2],binds
B2,binding,[3],binds
B3,binding,[4],binds
